The target in assay [1] is human TWIST1 (hTWIST1) stably over-expressed in MDCK cells (human) (UniProt Q15672). Kind of assay: co-IP.
The target of assay [2] is HA-tagged SIM2 (pCMV-Sim2-HA) (UniProt Q61079). Nature of the assay: co-IP.
In assay [3] the target is HA-tagged TAL1 (pCMV-Tal1-HA) (UniProt P22091). Kind of assay: co-IP.
Assay [4] deals with HA-tagged EBF3 (pCMV-Ebf3-HA) (UniProt O08791). Nature of the assay: co-IP.
The target of assay [5] is HA-tagged TWIST2 (pCMV-Twist2-HA) (UniProt Q9D030). Nature of the assay: co-IP.
The target in assay [6] is T1, HA-tagged EBF1 (pCMV-Ebf1-HA) (UniProt Q07802).
T1 sequence: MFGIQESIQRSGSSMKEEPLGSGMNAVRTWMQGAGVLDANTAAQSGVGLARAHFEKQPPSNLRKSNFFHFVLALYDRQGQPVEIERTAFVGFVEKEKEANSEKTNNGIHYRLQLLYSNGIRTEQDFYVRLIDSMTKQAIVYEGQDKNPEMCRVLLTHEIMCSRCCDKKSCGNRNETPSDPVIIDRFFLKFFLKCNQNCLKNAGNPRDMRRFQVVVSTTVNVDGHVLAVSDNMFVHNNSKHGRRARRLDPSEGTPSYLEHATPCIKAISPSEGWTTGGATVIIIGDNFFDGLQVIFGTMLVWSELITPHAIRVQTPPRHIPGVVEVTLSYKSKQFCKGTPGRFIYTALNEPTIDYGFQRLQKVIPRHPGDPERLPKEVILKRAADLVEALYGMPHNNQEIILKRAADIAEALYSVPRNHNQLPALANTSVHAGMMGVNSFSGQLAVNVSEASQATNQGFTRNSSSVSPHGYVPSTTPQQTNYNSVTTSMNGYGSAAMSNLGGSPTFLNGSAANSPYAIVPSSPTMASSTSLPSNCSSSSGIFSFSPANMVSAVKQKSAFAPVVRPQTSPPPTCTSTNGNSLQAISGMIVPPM
Kind of assay: co-IP.

By UniProt entry, the sequences of proteins in these tests, tags left out.
UniProt Q61079: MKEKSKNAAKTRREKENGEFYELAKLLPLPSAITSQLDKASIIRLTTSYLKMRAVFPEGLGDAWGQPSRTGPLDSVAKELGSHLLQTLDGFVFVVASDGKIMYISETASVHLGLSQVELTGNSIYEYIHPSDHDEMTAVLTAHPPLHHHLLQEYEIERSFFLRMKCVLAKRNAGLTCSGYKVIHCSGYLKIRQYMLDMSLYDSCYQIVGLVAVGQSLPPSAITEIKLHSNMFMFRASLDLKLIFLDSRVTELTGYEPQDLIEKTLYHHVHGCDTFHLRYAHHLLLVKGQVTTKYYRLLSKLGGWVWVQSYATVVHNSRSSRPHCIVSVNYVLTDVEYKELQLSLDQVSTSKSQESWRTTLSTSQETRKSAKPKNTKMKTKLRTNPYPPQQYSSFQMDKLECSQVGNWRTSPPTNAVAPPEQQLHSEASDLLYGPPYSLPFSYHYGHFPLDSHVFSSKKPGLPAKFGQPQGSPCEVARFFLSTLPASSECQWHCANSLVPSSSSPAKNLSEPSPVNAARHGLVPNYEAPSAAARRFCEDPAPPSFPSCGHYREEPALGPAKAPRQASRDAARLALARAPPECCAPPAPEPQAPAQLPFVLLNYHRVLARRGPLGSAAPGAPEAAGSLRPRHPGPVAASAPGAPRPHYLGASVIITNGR
UniProt P22091: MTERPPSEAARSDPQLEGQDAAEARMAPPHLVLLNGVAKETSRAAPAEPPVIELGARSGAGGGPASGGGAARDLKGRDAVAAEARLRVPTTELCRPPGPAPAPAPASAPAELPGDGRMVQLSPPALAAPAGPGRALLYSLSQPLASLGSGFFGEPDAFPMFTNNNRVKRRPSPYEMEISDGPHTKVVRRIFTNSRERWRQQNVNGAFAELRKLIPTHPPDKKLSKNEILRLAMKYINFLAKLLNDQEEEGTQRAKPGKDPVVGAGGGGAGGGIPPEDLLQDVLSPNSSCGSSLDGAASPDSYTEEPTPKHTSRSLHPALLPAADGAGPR
UniProt O08791: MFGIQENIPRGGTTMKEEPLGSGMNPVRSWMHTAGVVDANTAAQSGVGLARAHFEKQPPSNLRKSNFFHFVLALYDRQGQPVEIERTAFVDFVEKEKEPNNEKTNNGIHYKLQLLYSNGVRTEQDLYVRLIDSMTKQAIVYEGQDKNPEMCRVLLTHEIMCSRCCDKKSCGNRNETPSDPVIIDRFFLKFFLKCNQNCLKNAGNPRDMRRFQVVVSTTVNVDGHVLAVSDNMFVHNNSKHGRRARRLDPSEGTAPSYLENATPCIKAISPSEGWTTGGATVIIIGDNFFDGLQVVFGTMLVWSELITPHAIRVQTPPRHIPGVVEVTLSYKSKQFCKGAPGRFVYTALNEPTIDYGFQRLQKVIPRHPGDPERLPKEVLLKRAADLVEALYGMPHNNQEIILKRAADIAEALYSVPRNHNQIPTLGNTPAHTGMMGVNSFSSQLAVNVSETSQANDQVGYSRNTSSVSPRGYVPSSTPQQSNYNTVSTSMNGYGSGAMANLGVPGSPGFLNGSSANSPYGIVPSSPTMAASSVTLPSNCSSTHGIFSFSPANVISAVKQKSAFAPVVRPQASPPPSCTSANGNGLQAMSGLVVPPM
UniProt Q9D030: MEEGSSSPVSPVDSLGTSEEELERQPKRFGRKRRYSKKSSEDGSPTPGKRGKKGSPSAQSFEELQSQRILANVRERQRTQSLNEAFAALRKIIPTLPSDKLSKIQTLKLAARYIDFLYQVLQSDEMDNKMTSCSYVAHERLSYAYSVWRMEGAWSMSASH
UniProt Q60722: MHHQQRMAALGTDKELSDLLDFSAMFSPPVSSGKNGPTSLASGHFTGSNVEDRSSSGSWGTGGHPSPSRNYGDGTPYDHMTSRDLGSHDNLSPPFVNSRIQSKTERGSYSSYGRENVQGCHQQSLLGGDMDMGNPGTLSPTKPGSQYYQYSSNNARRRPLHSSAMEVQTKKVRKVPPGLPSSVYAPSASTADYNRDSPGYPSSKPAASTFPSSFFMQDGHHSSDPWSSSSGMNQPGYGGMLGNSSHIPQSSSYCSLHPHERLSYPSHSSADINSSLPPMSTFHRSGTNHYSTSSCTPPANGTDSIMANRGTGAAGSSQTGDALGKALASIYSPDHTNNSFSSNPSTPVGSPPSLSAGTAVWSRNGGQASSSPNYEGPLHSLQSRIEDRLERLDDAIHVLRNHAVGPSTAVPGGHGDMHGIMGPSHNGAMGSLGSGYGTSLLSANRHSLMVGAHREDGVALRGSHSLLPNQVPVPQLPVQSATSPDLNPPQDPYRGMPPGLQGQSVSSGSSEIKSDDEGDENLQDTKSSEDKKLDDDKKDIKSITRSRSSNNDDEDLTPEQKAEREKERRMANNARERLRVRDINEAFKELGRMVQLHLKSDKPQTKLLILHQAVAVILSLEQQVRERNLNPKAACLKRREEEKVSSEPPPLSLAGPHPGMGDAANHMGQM
UniProt Q61286: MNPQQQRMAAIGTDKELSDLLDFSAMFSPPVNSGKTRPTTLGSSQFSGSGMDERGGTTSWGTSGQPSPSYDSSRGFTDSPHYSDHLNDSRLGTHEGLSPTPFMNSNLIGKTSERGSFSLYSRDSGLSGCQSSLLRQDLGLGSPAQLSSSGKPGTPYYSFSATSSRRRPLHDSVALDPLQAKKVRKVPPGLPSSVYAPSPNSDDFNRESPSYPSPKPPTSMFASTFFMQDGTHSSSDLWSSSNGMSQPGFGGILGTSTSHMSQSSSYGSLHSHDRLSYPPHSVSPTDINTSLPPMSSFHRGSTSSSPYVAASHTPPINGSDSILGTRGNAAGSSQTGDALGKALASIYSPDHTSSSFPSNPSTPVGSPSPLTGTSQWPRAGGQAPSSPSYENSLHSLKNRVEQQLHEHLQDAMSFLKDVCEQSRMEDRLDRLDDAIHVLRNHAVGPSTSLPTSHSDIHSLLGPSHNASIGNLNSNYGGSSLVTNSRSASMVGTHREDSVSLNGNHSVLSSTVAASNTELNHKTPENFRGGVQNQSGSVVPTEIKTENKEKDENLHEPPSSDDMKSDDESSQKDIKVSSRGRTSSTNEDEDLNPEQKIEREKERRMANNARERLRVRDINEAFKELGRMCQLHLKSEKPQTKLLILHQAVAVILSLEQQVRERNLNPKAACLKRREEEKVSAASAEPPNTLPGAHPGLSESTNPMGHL
UniProt P15806: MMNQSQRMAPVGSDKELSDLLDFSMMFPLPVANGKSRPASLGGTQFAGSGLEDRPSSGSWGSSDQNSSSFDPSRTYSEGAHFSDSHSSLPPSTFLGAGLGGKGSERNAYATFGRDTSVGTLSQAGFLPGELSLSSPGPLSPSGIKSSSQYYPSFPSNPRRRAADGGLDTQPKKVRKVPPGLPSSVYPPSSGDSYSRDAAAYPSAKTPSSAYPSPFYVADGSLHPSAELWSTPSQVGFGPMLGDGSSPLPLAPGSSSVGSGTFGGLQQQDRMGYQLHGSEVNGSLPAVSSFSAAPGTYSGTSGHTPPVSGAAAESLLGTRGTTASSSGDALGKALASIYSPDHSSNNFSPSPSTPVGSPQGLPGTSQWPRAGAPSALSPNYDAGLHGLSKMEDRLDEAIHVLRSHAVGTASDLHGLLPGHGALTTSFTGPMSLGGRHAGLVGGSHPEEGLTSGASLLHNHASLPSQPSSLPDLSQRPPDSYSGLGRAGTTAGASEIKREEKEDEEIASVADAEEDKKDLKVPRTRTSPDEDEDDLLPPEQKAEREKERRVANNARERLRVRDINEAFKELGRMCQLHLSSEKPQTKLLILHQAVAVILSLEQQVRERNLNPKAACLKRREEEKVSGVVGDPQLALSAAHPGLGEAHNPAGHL

Assay [7] deals with HA-tagged TCF4 (pCMV-Tcf4-HA) (UniProt Q60722). Nature of the assay: co-IP.
Assay [8] deals with wild-type TWIST1 BiFC fusions (TWIST1-CC155 and TWIST1-VN173) (mouse) (UniProt P26687). Kind of assay: split reporter.
Assay [9] addresses TCF12-CrN173 (mouse) (UniProt Q61286). Nature of the assay: split reporter.

No constants are given. Whether binding was seen depends on the method and setting. Binding seen in cells or lysates may run through a third protein. Some entries that bind do so weakly or less than the wild type. For some assays here: Where a sequence is shown, tags or fusion partners need not be part of it.

In the case of “HA-tagged EBF3 (pCMV-Ebf3-HA) (from UniProt O08791 1-596)”, the binding entry in assay [1] is reported as “binds”.

Take “HA-tagged SIM2 (pCMV-Sim2-HA) (from UniProt Q61079 1-657)”: the binding entry in assay [1] was “binds”.

In the case of “HA-tagged TAL1 (pCMV-Tal1-HA) (from UniProt P22091 1-329)”, in assay [1], the binding entry was “binds”.

As to “HA-tagged TWIST2 (pCMV-Twist2-HA) (from UniProt Q9D030 1-160)”, in assay [1], the binding result is recorded as “binds”.

As to “HA-tagged TCF3 (pCMV-Tcf3-HA) (from UniProt P15806 1-651)”, the binding entry in [1] is recorded as “binds”.

As for “human TWIST1 (hTWIST1) stably over-expressed in MDCK cells (from UniProt Q15672 1-202)”, the binding entry in assay [2], in assay [3], in assay [4], in assay [5], in assay [6] and in [7] was “binds” each time.

B1: HA-tagged EBF1 (pCMV-Ebf1-HA) (protein, UniProt Q07802 1-591)
chain: T1 sequence
For the molecule B1, the binding result in assay [1] is “binds”.

B2: wild-type TWIST1 BiFC fusions (TWIST1-CC155 and TWIST1-VN173) (protein, UniProt P26687 1-206)
chain: MMQDVSSSPVSPADDSLSNSEEEPDRQQPASGKRGARKRRSSRRSAGGSAGPGGATGGGIGGGDEPGSPAQGKRGKKSAGGGGGGGAGGGGGGGGGSSSGGGSPQSYEELQTQRVMANVRERQRTQSLNEAFAALRKIIPTLPSDKLSKIQTLKLAARYIDFLYQVLQSDELDSKMASCSYVAHERLSYAFSVWRMEGAWSMSASH
Regarding B2, the binding entry in assay [8] and in assay [9] was “binds” in each case.
